No constants are given. Whether binding was seen depends on the method and setting. For some assays here: Binding seen in cells or lysates may run through a third protein. Some results given as binding are weak or reduced against the parent protein; the word gives no strength. For some assays here: Tags and fused reporters may be left off the sequences shown. Each block holds one molecule with its values, some of them ahead of it.
Assays:
[1] = target: T1, MYC-TAOK3 (human MYC-tagged full-length TAOK3) (human) (UniProt Q9H2K8); assay: co-IP; protein extracts of transfected IHHs; immunoprecipitation with anti-MYC antibodies (Anti-c-MYC Magnetic Beads); Western blot
T1 sequence: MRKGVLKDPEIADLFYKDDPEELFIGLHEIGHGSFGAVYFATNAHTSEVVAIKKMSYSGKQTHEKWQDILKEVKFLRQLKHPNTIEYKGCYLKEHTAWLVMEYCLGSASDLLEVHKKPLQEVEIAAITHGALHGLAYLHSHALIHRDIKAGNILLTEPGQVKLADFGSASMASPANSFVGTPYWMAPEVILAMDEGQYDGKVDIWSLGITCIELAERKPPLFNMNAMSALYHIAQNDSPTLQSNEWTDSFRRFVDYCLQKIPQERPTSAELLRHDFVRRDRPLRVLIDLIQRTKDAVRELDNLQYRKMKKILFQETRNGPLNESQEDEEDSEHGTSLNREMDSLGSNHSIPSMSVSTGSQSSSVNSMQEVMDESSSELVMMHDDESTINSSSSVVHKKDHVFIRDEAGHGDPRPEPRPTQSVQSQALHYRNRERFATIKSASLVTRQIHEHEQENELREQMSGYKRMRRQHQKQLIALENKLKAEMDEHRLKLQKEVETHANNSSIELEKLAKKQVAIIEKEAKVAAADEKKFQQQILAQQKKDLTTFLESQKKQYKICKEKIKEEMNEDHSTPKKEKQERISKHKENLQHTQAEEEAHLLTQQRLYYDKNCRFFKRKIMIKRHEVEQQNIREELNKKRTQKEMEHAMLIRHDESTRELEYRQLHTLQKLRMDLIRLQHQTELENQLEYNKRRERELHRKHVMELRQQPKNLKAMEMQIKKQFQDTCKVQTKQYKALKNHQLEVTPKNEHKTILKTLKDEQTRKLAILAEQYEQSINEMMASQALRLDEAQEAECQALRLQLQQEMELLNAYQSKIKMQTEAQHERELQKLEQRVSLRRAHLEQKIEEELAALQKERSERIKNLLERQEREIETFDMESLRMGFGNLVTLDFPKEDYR

Chains of the proteins cited; added tags and fusions are not shown.
UniProt O00506: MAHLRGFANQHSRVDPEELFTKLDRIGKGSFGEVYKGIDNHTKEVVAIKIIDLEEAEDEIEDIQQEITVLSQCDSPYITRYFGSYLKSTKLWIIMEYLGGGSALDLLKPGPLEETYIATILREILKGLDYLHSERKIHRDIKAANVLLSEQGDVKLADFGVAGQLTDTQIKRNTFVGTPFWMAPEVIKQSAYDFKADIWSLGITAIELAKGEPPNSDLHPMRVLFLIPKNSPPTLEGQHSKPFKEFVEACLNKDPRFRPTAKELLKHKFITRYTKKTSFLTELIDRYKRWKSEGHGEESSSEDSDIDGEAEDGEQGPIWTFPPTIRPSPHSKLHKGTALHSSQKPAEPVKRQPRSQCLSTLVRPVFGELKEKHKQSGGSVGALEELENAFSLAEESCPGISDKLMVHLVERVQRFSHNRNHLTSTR

[2] = target: Gal4-STK25 (full-length human STK25 fused to the Gal4 DNA-binding domain) (human) (UniProt O00506); assay: two-hybrid; Gal4-STK25 bait (pB35) screened against a random-primed primary human hepatocyte cDNA library in pP6; mating of YHGX13 and CG1945; His+ colonies on medium lacking tryptophan, leucine, methionine and histidine

- binding [1]: binds
Molecule: FLAG-STK25 (from UniProt O00506 1-426)

- binding [2]: binds
B1: TAOK3 prey fragment (amino acids 1 to 447) (domain or fragment, UniProt Q9H2K8 1-447)
chain: MRKGVLKDPEIADLFYKDDPEELFIGLHEIGHGSFGAVYFATNAHTSEVVAIKKMSYSGKQTHEKWQDILKEVKFLRQLKHPNTIEYKGCYLKEHTAWLVMEYCLGSASDLLEVHKKPLQEVEIAAITHGALHGLAYLHSHALIHRDIKAGNILLTEPGQVKLADFGSASMASPANSFVGTPYWMAPEVILAMDEGQYDGKVDIWSLGITCIELAERKPPLFNMNAMSALYHIAQNDSPTLQSNEWTDSFRRFVDYCLQKIPQERPTSAELLRHDFVRRDRPLRVLIDLIQRTKDAVRELDNLQYRKMKKILFQETRNGPLNESQEDEEDSEHGTSLNREMDSLGSNHSIPSMSVSTGSQSSSVNSMQEVMDESSSELVMMHDDESTINSSSSVVHKKDHVFIRDEAGHGDPRPEPRPTQSVQSQALHYRNRERFATIKSASLVTRQ
